According to the supplement of paper PMC12067093, “Discovery and optimisation of a covalent ligand for TRIM25 and its application to targeted protein ubiquitination” (Chemical Science, 2025):
The other results are listed elsewhere or left out.

By UniProt entry, the sequences of proteins in these tests, tags left out. Where a name states a change or a piece, a line headed by the entry shows the natural chain unless it says otherwise.
UniProt Q9Y5J6: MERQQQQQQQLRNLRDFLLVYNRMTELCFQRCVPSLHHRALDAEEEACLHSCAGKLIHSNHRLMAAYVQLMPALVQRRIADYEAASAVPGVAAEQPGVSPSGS
UniProt Q3LXA3: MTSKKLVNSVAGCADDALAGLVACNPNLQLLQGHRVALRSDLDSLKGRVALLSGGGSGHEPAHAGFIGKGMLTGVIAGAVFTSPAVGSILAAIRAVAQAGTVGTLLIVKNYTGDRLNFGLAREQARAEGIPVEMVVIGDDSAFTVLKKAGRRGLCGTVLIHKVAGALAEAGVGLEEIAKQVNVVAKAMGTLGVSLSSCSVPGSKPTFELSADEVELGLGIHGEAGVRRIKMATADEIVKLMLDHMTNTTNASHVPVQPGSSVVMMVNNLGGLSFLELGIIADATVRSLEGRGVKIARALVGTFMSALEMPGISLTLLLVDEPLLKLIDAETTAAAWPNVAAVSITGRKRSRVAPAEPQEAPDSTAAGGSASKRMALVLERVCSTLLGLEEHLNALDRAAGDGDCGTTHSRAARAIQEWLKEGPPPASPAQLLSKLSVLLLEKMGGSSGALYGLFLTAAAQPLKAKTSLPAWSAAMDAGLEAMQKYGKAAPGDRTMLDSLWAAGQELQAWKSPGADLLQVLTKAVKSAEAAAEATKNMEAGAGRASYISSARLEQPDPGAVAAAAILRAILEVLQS
UniProt Q9UGI8: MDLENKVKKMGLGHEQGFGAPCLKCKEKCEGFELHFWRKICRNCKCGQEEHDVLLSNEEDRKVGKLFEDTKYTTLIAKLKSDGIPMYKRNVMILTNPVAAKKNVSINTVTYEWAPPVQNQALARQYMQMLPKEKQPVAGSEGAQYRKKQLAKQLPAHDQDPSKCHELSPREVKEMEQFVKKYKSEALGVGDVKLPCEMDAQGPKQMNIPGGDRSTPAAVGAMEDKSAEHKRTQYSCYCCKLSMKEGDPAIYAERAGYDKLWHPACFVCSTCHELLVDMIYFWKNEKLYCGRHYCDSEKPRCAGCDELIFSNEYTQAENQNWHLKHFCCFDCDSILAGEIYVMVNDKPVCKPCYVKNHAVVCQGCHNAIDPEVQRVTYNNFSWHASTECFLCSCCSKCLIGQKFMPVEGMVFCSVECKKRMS
UniProt Q9Y490: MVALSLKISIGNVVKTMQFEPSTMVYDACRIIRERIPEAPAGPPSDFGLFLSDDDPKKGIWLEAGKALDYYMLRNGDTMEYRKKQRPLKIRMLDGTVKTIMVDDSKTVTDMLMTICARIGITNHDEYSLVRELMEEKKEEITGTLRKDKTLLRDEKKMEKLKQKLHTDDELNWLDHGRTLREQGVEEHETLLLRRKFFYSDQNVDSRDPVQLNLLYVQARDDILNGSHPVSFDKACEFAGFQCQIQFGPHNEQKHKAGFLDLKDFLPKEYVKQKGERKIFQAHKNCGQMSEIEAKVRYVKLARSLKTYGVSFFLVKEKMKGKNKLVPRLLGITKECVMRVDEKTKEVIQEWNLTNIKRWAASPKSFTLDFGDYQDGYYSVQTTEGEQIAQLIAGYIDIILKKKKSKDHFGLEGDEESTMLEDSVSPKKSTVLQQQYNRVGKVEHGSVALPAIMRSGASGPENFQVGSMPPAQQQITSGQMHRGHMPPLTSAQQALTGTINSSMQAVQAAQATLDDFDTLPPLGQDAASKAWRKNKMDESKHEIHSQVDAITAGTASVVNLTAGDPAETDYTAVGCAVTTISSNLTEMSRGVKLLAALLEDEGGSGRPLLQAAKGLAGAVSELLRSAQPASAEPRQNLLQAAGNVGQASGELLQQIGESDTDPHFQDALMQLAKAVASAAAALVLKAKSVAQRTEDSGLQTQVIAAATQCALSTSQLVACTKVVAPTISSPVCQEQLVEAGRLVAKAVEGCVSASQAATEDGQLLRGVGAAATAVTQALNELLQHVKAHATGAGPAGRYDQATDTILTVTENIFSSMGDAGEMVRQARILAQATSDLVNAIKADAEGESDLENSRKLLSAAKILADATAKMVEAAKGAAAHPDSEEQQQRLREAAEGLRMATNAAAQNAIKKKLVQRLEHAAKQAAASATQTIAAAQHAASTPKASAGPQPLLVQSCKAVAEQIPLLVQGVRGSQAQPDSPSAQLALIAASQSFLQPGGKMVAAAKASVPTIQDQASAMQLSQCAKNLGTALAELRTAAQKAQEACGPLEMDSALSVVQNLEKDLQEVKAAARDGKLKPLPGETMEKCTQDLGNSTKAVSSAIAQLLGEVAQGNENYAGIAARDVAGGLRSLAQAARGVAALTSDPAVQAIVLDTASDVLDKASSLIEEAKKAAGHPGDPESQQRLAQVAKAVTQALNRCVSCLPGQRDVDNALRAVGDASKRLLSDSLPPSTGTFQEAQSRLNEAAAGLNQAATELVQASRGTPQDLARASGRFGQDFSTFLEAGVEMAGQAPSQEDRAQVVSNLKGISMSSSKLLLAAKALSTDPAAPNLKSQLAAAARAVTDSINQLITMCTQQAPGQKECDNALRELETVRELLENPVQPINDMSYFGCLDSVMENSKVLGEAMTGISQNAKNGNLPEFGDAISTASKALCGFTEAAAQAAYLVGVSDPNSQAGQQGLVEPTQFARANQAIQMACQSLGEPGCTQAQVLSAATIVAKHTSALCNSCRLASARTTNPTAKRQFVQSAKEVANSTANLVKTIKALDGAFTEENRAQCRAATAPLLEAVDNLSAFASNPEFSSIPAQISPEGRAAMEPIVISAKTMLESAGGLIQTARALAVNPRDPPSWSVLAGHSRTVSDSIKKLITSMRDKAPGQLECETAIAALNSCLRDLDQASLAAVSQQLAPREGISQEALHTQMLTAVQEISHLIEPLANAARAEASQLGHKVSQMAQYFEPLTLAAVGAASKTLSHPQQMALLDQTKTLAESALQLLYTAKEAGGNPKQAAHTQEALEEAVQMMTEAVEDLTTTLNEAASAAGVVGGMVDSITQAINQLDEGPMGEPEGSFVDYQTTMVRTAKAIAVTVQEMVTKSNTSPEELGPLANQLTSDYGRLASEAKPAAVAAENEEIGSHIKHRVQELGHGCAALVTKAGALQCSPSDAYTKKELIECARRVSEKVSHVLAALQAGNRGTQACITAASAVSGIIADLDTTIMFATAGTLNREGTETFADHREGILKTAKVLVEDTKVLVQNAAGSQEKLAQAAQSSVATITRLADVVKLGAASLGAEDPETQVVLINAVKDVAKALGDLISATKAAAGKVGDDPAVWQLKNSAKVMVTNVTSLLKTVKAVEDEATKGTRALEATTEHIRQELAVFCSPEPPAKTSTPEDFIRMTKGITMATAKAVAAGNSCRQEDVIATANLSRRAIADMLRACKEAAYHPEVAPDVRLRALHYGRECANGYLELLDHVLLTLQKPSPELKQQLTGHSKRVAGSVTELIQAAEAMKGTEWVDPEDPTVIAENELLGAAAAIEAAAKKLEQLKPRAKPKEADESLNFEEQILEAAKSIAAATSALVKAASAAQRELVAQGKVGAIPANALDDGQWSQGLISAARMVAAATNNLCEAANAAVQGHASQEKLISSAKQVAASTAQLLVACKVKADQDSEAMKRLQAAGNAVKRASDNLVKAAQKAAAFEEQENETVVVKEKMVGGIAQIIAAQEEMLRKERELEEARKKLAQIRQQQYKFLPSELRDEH
UniProt Q13769: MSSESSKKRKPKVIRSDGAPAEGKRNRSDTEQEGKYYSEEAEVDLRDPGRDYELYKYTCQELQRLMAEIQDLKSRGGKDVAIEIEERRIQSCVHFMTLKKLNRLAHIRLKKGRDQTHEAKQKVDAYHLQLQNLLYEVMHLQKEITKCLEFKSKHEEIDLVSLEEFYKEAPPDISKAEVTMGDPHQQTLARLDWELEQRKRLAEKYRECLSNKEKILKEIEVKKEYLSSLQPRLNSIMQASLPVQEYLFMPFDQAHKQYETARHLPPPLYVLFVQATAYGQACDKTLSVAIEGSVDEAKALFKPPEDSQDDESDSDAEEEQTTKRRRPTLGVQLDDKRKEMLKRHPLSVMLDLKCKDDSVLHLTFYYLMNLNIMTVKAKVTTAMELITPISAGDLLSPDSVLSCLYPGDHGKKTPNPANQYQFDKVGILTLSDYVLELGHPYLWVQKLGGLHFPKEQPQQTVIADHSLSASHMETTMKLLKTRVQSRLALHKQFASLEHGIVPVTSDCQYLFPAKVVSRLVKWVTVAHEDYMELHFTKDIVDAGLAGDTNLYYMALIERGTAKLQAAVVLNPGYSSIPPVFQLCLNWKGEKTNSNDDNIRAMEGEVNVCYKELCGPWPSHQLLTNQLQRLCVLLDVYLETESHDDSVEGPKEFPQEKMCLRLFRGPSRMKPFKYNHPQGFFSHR
UniProt Q9BSF4: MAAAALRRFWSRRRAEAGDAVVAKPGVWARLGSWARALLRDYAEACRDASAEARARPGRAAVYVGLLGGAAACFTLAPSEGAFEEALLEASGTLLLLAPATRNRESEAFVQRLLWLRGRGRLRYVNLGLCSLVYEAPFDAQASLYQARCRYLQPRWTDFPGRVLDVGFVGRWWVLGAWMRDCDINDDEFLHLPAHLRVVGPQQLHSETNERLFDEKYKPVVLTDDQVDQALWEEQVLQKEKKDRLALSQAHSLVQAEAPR
UniProt Q6I9Y2: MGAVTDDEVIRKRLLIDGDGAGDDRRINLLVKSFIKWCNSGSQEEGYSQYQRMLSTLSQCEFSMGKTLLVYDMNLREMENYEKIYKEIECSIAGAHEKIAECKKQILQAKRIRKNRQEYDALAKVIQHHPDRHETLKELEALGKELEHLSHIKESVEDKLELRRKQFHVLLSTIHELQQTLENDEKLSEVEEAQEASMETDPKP
UniProt Q8NI27: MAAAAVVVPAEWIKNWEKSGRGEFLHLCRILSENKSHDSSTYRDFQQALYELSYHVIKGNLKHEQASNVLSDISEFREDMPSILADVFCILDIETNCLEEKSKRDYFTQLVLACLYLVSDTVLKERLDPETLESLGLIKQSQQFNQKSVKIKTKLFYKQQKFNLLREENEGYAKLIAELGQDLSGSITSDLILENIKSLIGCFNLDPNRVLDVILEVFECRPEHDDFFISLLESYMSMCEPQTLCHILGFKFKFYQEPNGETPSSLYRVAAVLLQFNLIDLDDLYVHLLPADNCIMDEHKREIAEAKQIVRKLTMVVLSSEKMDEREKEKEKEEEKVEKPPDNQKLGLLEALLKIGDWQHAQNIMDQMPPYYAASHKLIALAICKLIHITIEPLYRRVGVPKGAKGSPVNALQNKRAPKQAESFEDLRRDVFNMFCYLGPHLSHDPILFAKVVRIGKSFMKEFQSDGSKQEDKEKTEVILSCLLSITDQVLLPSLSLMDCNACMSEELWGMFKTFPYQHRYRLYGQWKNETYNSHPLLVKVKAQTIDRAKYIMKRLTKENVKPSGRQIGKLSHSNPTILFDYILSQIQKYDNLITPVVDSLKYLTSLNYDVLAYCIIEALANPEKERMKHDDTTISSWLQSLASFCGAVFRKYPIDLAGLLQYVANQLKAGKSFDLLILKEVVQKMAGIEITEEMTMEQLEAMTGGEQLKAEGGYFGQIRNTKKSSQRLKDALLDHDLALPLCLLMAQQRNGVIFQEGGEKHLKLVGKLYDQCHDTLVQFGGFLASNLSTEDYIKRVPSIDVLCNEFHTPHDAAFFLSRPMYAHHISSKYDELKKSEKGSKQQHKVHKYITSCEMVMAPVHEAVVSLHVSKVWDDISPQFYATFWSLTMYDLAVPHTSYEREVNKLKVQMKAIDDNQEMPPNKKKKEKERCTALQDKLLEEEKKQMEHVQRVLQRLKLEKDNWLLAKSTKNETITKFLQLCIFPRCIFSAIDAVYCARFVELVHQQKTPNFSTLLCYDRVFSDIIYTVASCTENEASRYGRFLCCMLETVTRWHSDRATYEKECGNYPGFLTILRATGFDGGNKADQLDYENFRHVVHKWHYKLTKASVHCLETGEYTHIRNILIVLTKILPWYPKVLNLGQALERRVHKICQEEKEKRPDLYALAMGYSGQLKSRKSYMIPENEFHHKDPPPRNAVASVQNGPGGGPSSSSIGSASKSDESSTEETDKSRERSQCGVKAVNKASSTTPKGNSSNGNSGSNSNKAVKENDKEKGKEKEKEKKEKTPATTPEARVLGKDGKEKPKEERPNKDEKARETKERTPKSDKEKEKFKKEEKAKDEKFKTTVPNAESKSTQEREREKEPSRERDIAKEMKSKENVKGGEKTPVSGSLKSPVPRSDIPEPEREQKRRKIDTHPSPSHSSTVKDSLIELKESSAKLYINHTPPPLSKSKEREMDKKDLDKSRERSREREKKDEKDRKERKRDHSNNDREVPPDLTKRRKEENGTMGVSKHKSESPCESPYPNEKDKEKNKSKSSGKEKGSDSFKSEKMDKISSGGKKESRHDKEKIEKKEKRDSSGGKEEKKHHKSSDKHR

Compound: CC1Cc2ccccc2N1C(=O)C1CCCN(C1)C(=O)CCl (mixture of isomers) [TRIM25 ligand 11 (diastereomer mixture)]
Assay: probe-labelled cysteine peptide fold change vs DMSO (competition) (log2 fold change); higher = less target engagement (more negative = stronger competition)
Conditions: THP-1, incubation time: 4 h
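Also: competitive chemoproteomic profiling in live THP-1 cells with an iodoacetamide desthiobiotin (IA-DTB) probe, comparing probe-labelled peptide intensities in compound-treated cells against DMSO-treated controls.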

TIMM10B_Q9Y5J6_48+52_ALDAEEEACLHSCAGK (UniProt Q9Y5J6)
probe-labelled cysteine peptide fold change (10 µM): 0.041 | probe-labelled cysteine peptide fold change (50 µM): 0.211

TIGAR_Q9NQ88_256_EVKPTVQCICMNLQDHLNGLTETR (UniProt Q9NQ88)
probe-labelled cysteine peptide fold change (10 µM): 0.0239 | probe-labelled cysteine peptide fold change (50 µM): 0.0753

TKFC_Q3LXA3_155_GLCGTVLIHK (UniProt Q3LXA3)
probe-labelled cysteine peptide fold change (10 µM): -0.12 | probe-labelled cysteine peptide fold change (50 µM): -0.0329

TES_Q9UGI8_196_SEALGVGDVKLPCEMDAQGPK (UniProt Q9UGI8)
probe-labelled cysteine peptide fold change (10 µM): -0.416 | probe-labelled cysteine peptide fold change (50 µM): -0.379

TLN1_Q9Y490_1087_CTQDLGNSTK (UniProt Q9Y490)
probe-labelled cysteine peptide fold change (10 µM): 0.00467 | probe-labelled cysteine peptide fold change (50 µM): 0.146

THOC5_Q13769_59_YTCQELQR (UniProt Q13769)
probe-labelled cysteine peptide fold change (10 µM): 0.0519 | probe-labelled cysteine peptide fold change (50 µM): 0.132

THOC1_Q96FV9_226_HTEDREEGMDVEEGEMGDEEAPTTCSIPIDYNLYR (UniProt Q96FV9)
probe-labelled cysteine peptide fold change (10 µM): 0.0792 | probe-labelled cysteine peptide fold change (50 µM): -0.248

TIMM29_Q9BSF4_182_DCDINDDEFLHLPAHLR (UniProt Q9BSF4)
probe-labelled cysteine peptide fold change (10 µM): 0.0233 | probe-labelled cysteine peptide fold change (50 µM): 0.0365

TKFC_Q3LXA3_404_AAGDGDCGTTHSR (UniProt Q3LXA3)
probe-labelled cysteine peptide fold change (10 µM): 0.435 | probe-labelled cysteine peptide fold change (50 µM): -0.00367

TIMELESS_Q9UNS1_1126_VPGEQGSDEEHCK (UniProt Q9UNS1)
probe-labelled cysteine peptide fold change (10 µM): -0.18 | probe-labelled cysteine peptide fold change (50 µM): -0.398

THOC7_Q6I9Y2_90_EIECSIAGAHEK (UniProt Q6I9Y2)
probe-labelled cysteine peptide fold change (10 µM): -0.00626 | probe-labelled cysteine peptide fold change (50 µM): -0.143

TKT_P29401_413+417_MAAISESNINLCGSHCGVSIGEDGPSQMALEDLAMFR (UniProt P29401)
probe-labelled cysteine peptide fold change (10 µM): 0.151 | probe-labelled cysteine peptide fold change (50 µM): -0.129

TIMM29_Q9BSF4_46_DYAEACR (UniProt Q9BSF4)
probe-labelled cysteine peptide fold change (10 µM): -0.14 | probe-labelled cysteine peptide fold change (50 µM): 0.0204

THOC2_Q8NI27_986_CIFSAIDAVYCAR (UniProt Q8NI27)
probe-labelled cysteine peptide fold change (10 µM): -0.137 | probe-labelled cysteine peptide fold change (50 µM): 0.0824
